Experimental data: PubChem BioAssay AID1259308 (NCATS, 2017)

Assay: 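Candidate targets for better recombinant protein yield in mammalian cells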 (primary screen)
Cells: human HEK293 embryonic kidney cells stably expressing firefly luciferase (HEK-CMV-Luc2-Hygro)
Reagents: single siRNA against human genes, 0.8 pmol siRNA per well
Timing: 72 h
Read-out: 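Luciferase light (ONE-Glo) measured on one replicate plate set and viability (CellTiter-Glo) on the other, scaled to a negative control siRNA, with robust z-scores and luciferase per cell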
Reading the numbers: total luciferase, z-score: higher = more reporter protein produced
Active means: 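An siRNA counts as active if its total luciferase robust z-score exceeds 3; genes with two or more such siRNAs out of three were retested with fresh siRNAs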
Meaning of the calls: active = raised luciferase; inactive = no rise
Shown is one part, drawn at random, of about 59,000 reagents. About 1,510 of all reagents (2.6%) were called active. 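Calls use total luciferase alone and ignore viability, so some active siRNAs may act by altering cell number.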 Reagents against one gene are numbered here. Not all columns of the deposit are shown.

total luciferase, z-score, by gene knocked down and reagent
PIK3C2A: #1 -0.929 inactive; #2 -0.431 inactive; #3 -0.555 inactive
NFX1 (nuclear transcription factor, X-box binding 1): #1 0.0271 inactive; #2 -0.0272 inactive; #3 -1.16 inactive
FUNDC2P2 (FUN14 domain containing 2 pseudogene 2): #1 0.871 inactive; #2 0.712 inactive; #3 0.212 inactive
XRCC4 (X-ray repair cross complementing 4): #1 0.485 inactive; #2 1.13 inactive; #3 0.129 inactive
SH3BGRL (SH3 domain binding glutamate rich protein like): #1 1.83 inactive; #2 -0.129 inactive; #3 -0.943 inactive
HOXC5 (homeobox C5): #1 0.46 inactive; #2 0.203 inactive; #3 0.678 inactive
GRPEL1P1 (GRPEL1 pseudogene 1): #1 0.145 inactive; #2 2.82 inactive; #3 0.54 inactive
PEAK3 (PEAK family member 3): #1 -0.126 inactive; #2 1.28 inactive; #3 -1.33 inactive
MAPKAP1 (MAPK associated protein 1): #1 -0.99 inactive; #2 0.0441 inactive; #3 -0.579 inactive
FBXL18 (F-box and leucine rich repeat protein 18): #1 -1.41 inactive; #2 -2.63 inactive; #3 0.498 inactive
ZNF573 (zinc finger protein 573): #1 1.89 inactive; #2 -0.481 inactive; #3 -0.139 inactive
PARP8 (poly(ADP-ribose) polymerase family member 8): #1 -0.115 inactive; #2 0.213 inactive; #3 1.7 inactive
MAGEB2 (MAGE family member B2): #1 1.07 inactive; #2 1.27 inactive; #3 0.401 inactive
OR10C1 (olfactory receptor family 10 subfamily C member 1): #1 1.04 inactive; #2 1.19 inactive; #3 1.71 inactive
SHANK3 (SH3 and multiple ankyrin repeat domains 3): #1 -0.0135 inactive; #2 -1.16 inactive; #3 0.53 inactive
C6orf47 (chromosome 6 open reading frame 47): #1 0.622 inactive; #2 -1.95 inactive; #3 0.573 inactive
KIAA1755: #1 3.21 active; #2 -1.51 inactive; #3 1.32 inactive
KCNH6 (potassium voltage-gated channel subfamily H member 6): #1 -0.399 inactive; #2 1.49 inactive; #3 -0.582 inactive
SLC12A9: #1 -1.25 inactive; #2 0.0052 inactive; #3 0.733 inactive
CLCC1 (chloride channel CLIC like 1): #1 0.109 inactive; #2 0.279 inactive; #3 -0.848 inactive
PSEN1 (presenilin 1): #1 1.49 inactive; #2 -1.44 inactive; #3 0.861 inactive
RCBTB1 (RCC1 and BTB domain containing protein 1): #1 -0.315 inactive; #2 -1.04 inactive; #3 0.459 inactive
FAM120A (family with sequence similarity 120 member A): #1 0.172 inactive; #2 -0.134 inactive; #3 -0.736 inactive
DPYSL5 (dihydropyrimidinase like 5): #1 0.473 inactive; #2 -0.812 inactive; #3 0.391 inactive
THOC3 (THO complex subunit 3): #1 0.716 inactive; #2 1.12 inactive; #3 3.81 active

Not a retest: 4 of the entries above.
total luciferase, z-score, by gene knocked down and reagent
KCNH6 (potassium voltage-gated channel subfamily H member 6): #2 1.49 inactive; #3 -0.582 inactive
SLC12A9: #1 -1.25 inactive; #2 0.0052 inactive
